# Laboratory results published in PubChem BioAssay AID504467 (National Center for Advancing Translational Sciences (NCATS), 2011).
# The campaign covered roughly 330,000 compounds. About 7,700 (2.3%) were called active. The shares of active, inactive and inconclusive entries below differ from those in the screen. The call rests on the fitted dose curve; in most records, active means well fitted inhibition curve with a large enough effect; inconclusive means small, poorly fitted or top-dose-only effect, or effect the other way; inactive means flat fitted curve, though single readings scatter. Potencies beside an inconclusive call are fits to weak or partial responses and may not hold up.
# Test: qHTS screen for small molecules that inhibit ELG1-dependent DNA repair in human embryonic kidney (HEK293T) cells expressing luciferase-tagged ELG1; further: nearly all actives have a fitted effect of over 55% in size
# Conditions: HEK293T ELG1-luciferase reporter, luminescence, 16 h, DNA damage induced by 5-fluorouridine; activity change, negative = inhibition: at 46.1 µM (top of the series)
# Summary of the method: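 Reporter activity after DNA damage by 5-fluorouridine is monitored. Compound-treated cells incubate 16 hr at 37 °C, then ONE-Glo is added for 30 min before luminescence reading.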
# On the % scale 0 is the no-effect control and ±100 the full control effect; potency means the concentration at half of the fitted maximal effect.
SMILES,"activity change, negative = inhibition",Potency
CC1CCCC(NC(=O)COC(=O)[C@@H](NC(=O)c2ccccc2Cl)C(C)C)C1C (stereo partly drawn),inactive: 9.75%,
O=C(c1cn(Cc2ccccc2)nc1-c1ccccc1)N1CCN(c2ccccn2)CC1,,"inconclusive: 11.6 µM [inhibitor, partial curve]"
COc1ccc(N2C(=O)S[C@@H]3CS(=O)(=O)C[C@@H]32)cc1,,"inconclusive: 0.13 µM [activator, single point]"
CCCN(CCC)C(=O)CSc1nc2ccccc2c(=O)n1CC1COc2ccccc2O1 (stereo not drawn),,"inconclusive: 14.1 µM [inhibitor, partial curve, poor fit]"
Cc1ccc(NCc2ccco2)cc1C,inactive: 24.1%,
Cc1cccc(N(C)C(=O)CN2C(=O)COc3ccc(S(=O)(=O)N4CCCCCC4)cc32)c1,,"inconclusive: 29.1 µM [inhibitor, single point]"
CC1(C)CNc2cc([N+](=O)[O-])ccc2S1,,"inconclusive: 20.6 µM [activator, single point]"
CSCc1c(C(=O)OCC(=O)NC2CCCCC2)oc2ccccc12,inactive: -2.84%,
CCN(Cc1ccccc1)C(=O)C1CCN(c2ncnc3c2nc2n3CCCCC2)CC1,,"inconclusive: 14.6 µM [inhibitor, partial curve]"
CC(NC(=O)Cc1ccc(Br)cc1)c1ccccc1 (stereo not drawn),inactive: 3.25%,
CCOc1cc(/C=N\Nc2ccc([N+](=O)[O-])cc2)ccc1OCC(=O)Nc1ccc(C)c(C)c1,,"inconclusive: 1.84 µM [inhibitor, full curve]"
COC(=O)c1ccc(Oc2nc(C(N)=O)cc(-c3ccccc3)n2)cc1,inactive: -14.3%,
CN(C)CCNS(=O)(=O)c1ccc2c3c(cccc13)C(=O)N2,inactive: 4.93%,
CCC(C)(CCNC(=O)Cc1ccccc1)c1ccccc1OC (stereo not drawn),,"inconclusive: 16.4 µM [inhibitor, partial curve]"
CC(=O)Oc1ccc(NC(=O)CSc2ccccc2)cc1,,"inconclusive: 29.1 µM [activator, single point]"
CC(C)(C)n1cnc2cc(NC(=O)c3ccc(Cl)cc3)ccc21,,"inconclusive: 1.83 µM [activator, partial curve]"
O=C(O)c1cc(Nc2cc(Cl)c3nonc3c2[N+](=O)[O-])ccc1O,inactive: 11.1%,
O=S(=O)(c1ccc(Br)cc1)N1CCN(c2cc(-c3ccccc3)nc3ncnn23)CC1,,"inconclusive: 23.1 µM [inhibitor, partial curve]"
Cc1cccc(Nc2nccc(N(C)C)c2C#N)c1,,"inconclusive: 20.6 µM [activator, partial curve, poor fit]"
N#Cc1c(N)nc2c(c1-c1cccnc1)CCCCC2,,active: 13 µM
c1ccc(-c2ccc(-c3cnc4n3CCCCC4)cc2)cc1,,"inconclusive: 9.2 µM [activator, partial curve]"
COc1cc(SC)ccc1C(=O)NCc1ccc(C)cc1,,"inconclusive: 20.6 µM [activator, single point]"
Cn1cccc1/C=C1\SC(=O)N(c2ccccc2)C1=O,,"inconclusive: 6.51 µM [activator, partial curve]"
COc1cccc(C(=O)Nc2ccc(NC(=O)c3ccco3)nc2)c1,,"inconclusive: 8.2 µM [activator, partial curve]"
Cc1ccc(C(=O)Nn2c(C)nc3ccccc3c2=O)cc1C,inactive: -7.34%,

SMILES,"activity change, negative = inhibition",Potency
O=C(NC1CCCCC1)C1CC(=O)N(CCc2ccc(F)cc2)C1 (stereo not drawn),inactive: -0.257%,
COC(=O)C1(C)NC(c2ccc(F)cc2)C2C(=O)N(c3ccc(C)cc3)C(=O)C21 (stereo not drawn),inactive: 4.76%,
COc1ccc(-n2c(C)cc(C(=O)CSc3ccc(NC(C)=O)cc3)c2C)cc1,inactive: 7.14%,
C/C(=N\NC(=O)C(=O)Nc1cc(C)ccc1C)c1ccncc1,inactive: -0.453%,
COC(=O)CCN1CCc2cc(N=Nc3ccc([N+](=O)[O-])cc3)ccc21,,"inconclusive: 2.59 µM [activator, partial curve]"
Cn1cccc1C(=O)OCc1nc2ccccc2c(=O)[nH]1,,"inconclusive: 23.1 µM [activator, partial curve]"
Cc1ccccc1OCCC(=O)OCC(=O)N1CCN(S(=O)(=O)c2ccc(Cl)cc2)CC1,inactive: -19.5%,
CC1=C(C)C(C)=C(C#N)C(=C(C#N)C#N)N1,inactive: -5.57%,
O=C(NC(=S)Nc1nc2ccccc2s1)c1cccs1,,"inconclusive: 9.2 µM [activator, partial curve]"
COCCCNC(=S)Nc1ccccc1[N+](=O)[O-],,"inconclusive: 1.16 µM [inhibitor, single point]"
O=C(CC12CC3CC(CC(C3)C1)C2)NC(=S)Nc1ccc(CN2CCOCC2)cc1,,"inconclusive: 23.1 µM [inhibitor, single point]"
COc1cc(C(=O)N2CCc3ccccc32)ccc1OCc1c(C)noc1C,,"inconclusive: 29.1 µM [inhibitor, single point]"
CCN(CC)S(=O)(=O)c1cccc(NC(=O)C2CC(=O)N(c3ccc4c(c3)OCCO4)C2)c1 (stereo not drawn),,"inconclusive: 11.6 µM [inhibitor, partial curve]"
O=C(N/N=C/C(Cl)=C/c1ccccc1)c1ccco1,,"inconclusive: 16.4 µM [activator, partial curve]"
O=c1[nH]c(CN2CCN(Cc3ccccc3)CC2)nc2scc(-c3ccccc3)c12,,"inconclusive: 23.1 µM [inhibitor, single point]"
CSc1ncccc1C(=O)OCC(=O)c1cc(C)n(CC2CCCO2)c1C (stereo not drawn),,"inconclusive: 2.31 µM [activator, full curve]"
O=C(COc1ccc(F)cc1)Nc1nc2c(s1)CCCC2,,"inconclusive: 16.4 µM [activator, single point]"
O=C(O)CC1(CC(=O)NCc2cc(F)cc3c2OCOC3)CCCCC1,,"inconclusive: 3.66 µM [inhibitor, single point]"
CCc1nn(C(C)C(=O)NCCN2CCN(c3cccc(C)c3C)CC2)c(=O)c2cc3occc3n12 (stereo not drawn),,"inconclusive: 18.4 µM [inhibitor, single point]"
O=C1c2cccc3cccc(c23)C(=O)N1CCCN(C(=O)c1cccs1)c1cccc(F)c1,inactive: -28%,
CCOC(=O)c1sc(=NC(=O)/C=C/c2ccccc2)n(C)c1C,,"inconclusive: 2.59 µM [activator, full curve]"
COCc1ccc(C(=O)NCC2(N3CCCCC3)CCCCC2)cc1,,"inconclusive: 5.8 µM [activator, partial curve]"
Fc1ccc(Nc2ccnc(Nc3ccc(F)cc3)n2)cc1,,"inconclusive: 13 µM [activator, partial curve]"
CCCCCCCCCC(=O)N/N=C(\C)c1cccnc1,,"inconclusive: 25.9 µM [inhibitor, partial curve, poor fit]"
CCOc1ccccc1OCCCC(=O)Nc1sccc1C(N)=O,inactive: -53.2%,

SMILES,"activity change, negative = inhibition",Potency
O=C(C1CC(=O)N(c2ccc3c(c2)OCCO3)C1)N1CCN(c2ccccc2)CC1 (stereo not drawn),inactive: -12.1%,
COc1cccc(/C=C/C(=O)c2cccc([N+](=O)[O-])c2)c1OC,inactive: -1.01%,
Cc1ccc(CSCc2nc3ccccc3[nH]2)cc1,,"inconclusive: 4.11 µM [inhibitor, full curve]"
Cc1csc(NC(=O)CSc2nnc3c4ccccc4nc(C(C)(C)C)n23)n1,,"inconclusive: 20.6 µM [inhibitor, single point]"
CC1CCN(CCCNC(=O)c2nn(C)c3c2CS(=O)(=O)c2ccccc2-3)CC1,inactive: -2.89%,
CC(CNS(=O)(=O)c1ccc(Cl)cc1)n1cncn1 (stereo not drawn),inactive: -1.71%,
Cc1nnc(SCC(=O)NC2CCCC2)n1C(C)C,inactive: 17%,
CCCCCCn1c(COc2ccccc2F)nnc1SCC(=O)N1c2ccccc2NC(=O)C1(C)C,,"inconclusive: 20.6 µM [inhibitor, single point]"
COc1ccc(CNC(=O)COc2ccc(S(=O)(=O)N3CCCCC3)cc2Cl)cc1,,"inconclusive: 25.9 µM [inhibitor, single point]"
O=C(CN1CCN(C(C(=O)Nc2ccc(Cl)cc2C(F)(F)F)c2ccccc2)CC1)NC1CC1 (stereo not drawn),,"inconclusive: 23.1 µM [inhibitor, partial curve, poor fit]"
O=C(NNC(=S)Nc1ccccc1Cl)c1ccccc1Br,,"inconclusive: 5.17 µM [activator, partial curve]"
Cc1ccc(SCC(=O)OCC(=O)N(C)C2CCS(=O)(=O)C2)cc1C (stereo not drawn),inactive: 19.8%,
COc1ccc(-n2nc(C(=O)NCC(=O)N3CCCCCC3)c3ccccc3c2=O)c(OC)c1,,"inconclusive: 20.6 µM [activator, partial curve]"
S=C(NCC1CCCO1)Nc1ccc(Cl)cc1Cl (stereo not drawn),,"inconclusive: 16.4 µM [activator, partial curve]"
COc1ccc(C2CC(=O)N(C)c3ccccc3S2)cc1 (stereo not drawn),,"inconclusive: 18.3 µM [activator, partial curve]"
CCOC(=O)CC1=CSC2=NS(=O)(=O)CCN12,inactive: 4.26%,
CCCC(=O)OCC(=O)NCc1ccc(Cl)cc1,inactive: -7.91%,
CCCCNC(=O)Cn1c(=O)c2c(ncn2CCC(C)C)n(Cc2ccccc2)c1=O,inactive: 0.327%,
Cc1ccc(OCCCC(=O)Nc2cc(S(=O)(=O)N3CCOCC3)ccc2N2CCOCC2)cc1,inactive: -4.53%,
CN(C(=O)c1ccc(NC(=O)Cc2ccc(NC(=O)C3CCN(C(=O)CCc4ccccc4)CC3)cc2)cc1)C1CC1,,"inconclusive: 18.3 µM [inhibitor, partial curve, poor fit]"
CC(CN1CCOCC1)OC(=O)c1ccccc1Br (stereo not drawn),inactive: 22.8%,
C=CCn1c(C)cc(C(=O)CSc2nnc(C3CC3)n2C2CC2)c1C,,"inconclusive: 14.6 µM [activator, partial curve, poor fit]"
CC(C)Oc1cccc(C(=O)Nc2ccc(N3CCN(C)CC3)cc2)c1,,"inconclusive: 29.1 µM [activator, single point]"

# Rewritten with tabs: part of the list above.
SMILES	activity change, negative = inhibition	Potency
O=C(CN1CCN(C(C(=O)Nc2ccc(Cl)cc2C(F)(F)F)c2ccccc2)CC1)NC1CC1 (stereo not drawn)		inconclusive: 23.1 µM [inhibitor, partial curve, poor fit]
O=C(NNC(=S)Nc1ccccc1Cl)c1ccccc1Br		inconclusive: 5.17 µM [activator, partial curve]
Cc1ccc(SCC(=O)OCC(=O)N(C)C2CCS(=O)(=O)C2)cc1C (stereo not drawn)	inactive: 19.8%	
